Experimental data published in patent US20130108641A1.
Results are given in words; binding and its absence hold for the method and conditions named. Some binding calls cover weakened binding; strength is not graded here.

Amino acid sequences for entries named in this document (tags omitted). A change or cut given only in a name is not applied to a line headed by its entry. Residues count along the entry.
UniProt Q9Y5U5: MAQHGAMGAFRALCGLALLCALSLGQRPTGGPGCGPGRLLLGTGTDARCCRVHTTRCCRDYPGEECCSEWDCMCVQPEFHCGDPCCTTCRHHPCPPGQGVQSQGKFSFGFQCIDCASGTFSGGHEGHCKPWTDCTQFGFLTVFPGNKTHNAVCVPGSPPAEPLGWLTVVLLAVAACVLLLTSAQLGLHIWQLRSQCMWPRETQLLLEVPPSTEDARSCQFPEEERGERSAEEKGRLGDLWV
human GITR expressed on cells: residues 26-241 of Q9Y5U5
human GITR protein (form not stated): residues 26-161 of Q9Y5U5

Key:
[1] = target: human GITR expressed on cells (human) (UniProt Q9Y5U5); experiment: Meso Scale assay on HEK293-Trex-hGITR cells
[2] = target: human GITR protein (form not stated) (human) (UniProt Q9Y5U5); experiment: ELISA, GITR protein coated

| Binder | binding [1] | binding [2] |
| --- | --- | --- |
| anti-GITR antibody clone 1718 (antibody, V domains shown) VH: QVQVQQSGPELVKPGASVRISCKASDYTFTNYYIHWVRQRPGQGLEWLGWIYPGKGYTNYNEKFKGKATLTADKSSSTAYMQFSSLTSEDSAVYFCASGYGNYYFPYWGQGTLVTVSA VL: IQMTQSSSYLSVSLGGRVTITCKASDHIKNWLAWYQQKPGNVPRLLMSAATSLETGFPSRFSGSGSGKDFTLTITSLQTEDVATYYCQQYWSTPWTFGGGTKLEIK | binds | – |
| humanized anti-GITR antibody 2155 variant HC3a-LC2a (antibody, V domains shown) VH: QVTLVESGGGLVKPGGSLTLSCGASGFTISSYAMSWVRQSPGKALEWVAIISTGGSTYYPDKFRGRFTISRDNAKNSLYLTMSSLRSEDTATYYCARVGGYYDSMDHWGQGTSVT VL: DIVLTQSPASLSASVGDRATISCRASETVDNYGISFMNWFQQKPGQSPKLLIYAASNQGSGVPARFSGSGSGTDFSLTISPMQPDDTATYYCQQSKEVPWTFGGGTKLE | – | binds |

Continued, values first:

| binding [1] | binding [2] | Binder |
| --- | --- | --- |
| – | binds | humanized anti-GITR antibody 2155 variant HC3b-LC2a (antibody, V domains shown) VH: QVTLKESGGGLVKPGGSLTLSCGASGFTISSYAMSWVRQSPGKALEWVAIISTGGSTYYPDKFRGRFTISRDNAKNSLYLTMSSLRSEDTATYYCARVGGYYDSMDHWGQGTSVT VL: DIVLTQSPASLSASVGDRATISCRASETVDNYGISFMNWFQQKPGQSPKLLIYAASNQGSGVPARFSGSGSGTDFSLTISPMQPDDTATYYCQQSKEVPWTFGGGTKLE |
| – | binds | humanized anti-GITR antibody 2155 variant HC4-LC3 (antibody, V domains shown) VH: EVQLVESGGGLIQPGGSLKLSCAASGFTISSYAMSWVRQAPGKGLEWVAIISTGGSTYYADSVKGRFTISRDNSKNTLYLQMNSLRAEDTAVYYCARVGGYYDSMDHWGQGTSVT VL: DIVLTQSPASLAVSPGQRATITCRASETVDNYGISFMNWFQQKPGQPPKLLIYAASNQGSGVPARFSGSGSGTDFTLTINPVEADDTANYYCQQSKEVPWTFGQGTKVE |
